{"sequences": {"note": "The chains behind the UniProt entries cited, without tags or fusion partners. Where a name states a change or a piece, a line headed by the entry shows the natural chain unless it says otherwise. Residues count along the entry.", "UniProt Q8J025": "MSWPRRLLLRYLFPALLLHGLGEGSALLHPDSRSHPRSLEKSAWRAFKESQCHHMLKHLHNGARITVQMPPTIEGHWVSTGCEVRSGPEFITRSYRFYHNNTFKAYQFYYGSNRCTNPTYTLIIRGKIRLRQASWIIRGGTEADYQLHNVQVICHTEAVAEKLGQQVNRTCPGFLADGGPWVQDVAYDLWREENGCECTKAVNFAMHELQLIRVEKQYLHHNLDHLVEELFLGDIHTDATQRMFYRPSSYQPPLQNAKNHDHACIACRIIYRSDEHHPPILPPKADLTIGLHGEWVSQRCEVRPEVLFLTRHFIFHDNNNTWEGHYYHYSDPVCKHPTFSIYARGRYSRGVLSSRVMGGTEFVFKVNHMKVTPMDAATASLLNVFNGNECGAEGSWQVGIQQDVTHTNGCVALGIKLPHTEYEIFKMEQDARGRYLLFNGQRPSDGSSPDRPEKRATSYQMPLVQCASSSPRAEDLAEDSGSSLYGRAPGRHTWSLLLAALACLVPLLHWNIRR", "UniProt P56704, residues 19-352": "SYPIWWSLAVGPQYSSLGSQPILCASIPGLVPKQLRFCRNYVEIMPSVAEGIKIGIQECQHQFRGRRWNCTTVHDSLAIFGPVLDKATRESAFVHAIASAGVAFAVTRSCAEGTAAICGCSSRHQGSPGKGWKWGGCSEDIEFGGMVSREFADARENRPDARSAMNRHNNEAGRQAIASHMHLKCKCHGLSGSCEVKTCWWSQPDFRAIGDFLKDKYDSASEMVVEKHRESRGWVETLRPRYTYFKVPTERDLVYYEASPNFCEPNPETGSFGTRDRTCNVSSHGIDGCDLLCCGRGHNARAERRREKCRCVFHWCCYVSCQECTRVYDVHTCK"}, "source": "patent US20120003244A1", "key": {"[1]": {"biological_target": "C-terminal HA-tagged wild-type human APCDD1 (SWAMP-HA; pCXN2.1-Wt-SWAMP-HA) (human) (UniProt Q8J025)", "test": "co-immunoprecipitation in HEK293T cells"}, "[2]": {"biological_target": "C-terminal HA-tagged wild-type human APCDD1 (SWAMP-HA; pCXN2.1-Wt-SWAMP-HA) (human) (UniProt Q8J025)", "test": "western blot and co-immunoprecipitation of SWAMP expressed in HEK293T cells"}, "[3]": {"biological_target": "C-terminal Flag-tagged human SWAMP (SWAMP-Flag; pCXN2.1-Wt-SWAMP-Flag) (human) (UniProt Q8J025)", "test": "co-immunoprecipitation in HEK293T cells"}, "[4]": {"biological_target": "C-terminal HA-tagged human WNT3A (WNT3A-HA; pCXN2.1-WNT3A-HA) (human) (UniProt P56704)", "test": "co-precipitation (FIG. 18)"}, "[5]": {"biological_target": "C-terminal HA-tagged human WNT3A (WNT3A-HA; pCXN2.1-WNT3A-HA) (human) (UniProt P56704)", "test": "co-immunoprecipitation in HEK293T cells"}}, "note": "Results are given in words; binding and its absence hold for the method and conditions named. In cells and extracts the contact can be indirect. Some results given as binding are weak or reduced against the parent protein; the word gives no strength.", "data": [{"substance": "C-terminal Flag-tagged human SWAMP (SWAMP-Flag; pCXN2.1-Wt-SWAMP-Flag) (from UniProt Q8J025 27-514) (receptor)", "values": [{"measurement": "binding", "setting": "[1]", "result": "binds"}, {"measurement": "binding", "setting": "[2]", "result": "binds"}]}, {"substance": "C-terminal HA-tagged wild-type human APCDD1 (SWAMP-HA; pCXN2.1-Wt-SWAMP-HA) (from UniProt Q8J025 27-514) (receptor)", "values": [{"measurement": "binding", "setting": "[3]", "result": "binds"}]}, {"substance": "Flag-tagged extracellular domain of SWAMP protein (SWAMP-ΔTM-Flag; pCXN2.1-SWAMP-ΔTM-Flag) (from UniProt Q8J025 27-486) (receptor)", "values": [{"measurement": "binding", "setting": "[4]", "result": "binds"}, {"measurement": "binding", "setting": "[5]", "result": "binds"}]}]}
